Results as given in PubChem BioAssay (Tox21).
This list was built around the results that the source calls inconclusive (neither active nor inactive); the mix of calls is not that of the screen. A call without a number means that no potency is given here. For some of these results: Potencies beside an inconclusive call are fits to weak or partial responses and may not hold up. Activity calls are given as the source filed them. Unless noted, calls follow the shape of the full dose curve.

Sequences of proteins named here, by UniProt entry; tags and fusion partners are left off. A change or cut given only in a name is not applied to a line headed by its entry.
UniProt P19793: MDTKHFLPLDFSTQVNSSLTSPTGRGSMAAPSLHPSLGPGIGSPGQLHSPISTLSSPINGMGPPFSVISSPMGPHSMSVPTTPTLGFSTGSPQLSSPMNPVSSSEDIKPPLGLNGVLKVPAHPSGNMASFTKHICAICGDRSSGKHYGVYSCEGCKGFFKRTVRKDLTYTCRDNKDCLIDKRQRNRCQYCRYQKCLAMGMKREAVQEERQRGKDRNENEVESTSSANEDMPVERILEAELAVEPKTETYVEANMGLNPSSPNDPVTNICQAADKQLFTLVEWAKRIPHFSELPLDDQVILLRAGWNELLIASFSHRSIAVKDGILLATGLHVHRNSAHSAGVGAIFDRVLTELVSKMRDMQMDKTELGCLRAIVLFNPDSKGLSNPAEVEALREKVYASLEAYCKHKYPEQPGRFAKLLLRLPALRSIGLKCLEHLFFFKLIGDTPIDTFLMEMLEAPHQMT
UniProt P16473, whole entry, looked up: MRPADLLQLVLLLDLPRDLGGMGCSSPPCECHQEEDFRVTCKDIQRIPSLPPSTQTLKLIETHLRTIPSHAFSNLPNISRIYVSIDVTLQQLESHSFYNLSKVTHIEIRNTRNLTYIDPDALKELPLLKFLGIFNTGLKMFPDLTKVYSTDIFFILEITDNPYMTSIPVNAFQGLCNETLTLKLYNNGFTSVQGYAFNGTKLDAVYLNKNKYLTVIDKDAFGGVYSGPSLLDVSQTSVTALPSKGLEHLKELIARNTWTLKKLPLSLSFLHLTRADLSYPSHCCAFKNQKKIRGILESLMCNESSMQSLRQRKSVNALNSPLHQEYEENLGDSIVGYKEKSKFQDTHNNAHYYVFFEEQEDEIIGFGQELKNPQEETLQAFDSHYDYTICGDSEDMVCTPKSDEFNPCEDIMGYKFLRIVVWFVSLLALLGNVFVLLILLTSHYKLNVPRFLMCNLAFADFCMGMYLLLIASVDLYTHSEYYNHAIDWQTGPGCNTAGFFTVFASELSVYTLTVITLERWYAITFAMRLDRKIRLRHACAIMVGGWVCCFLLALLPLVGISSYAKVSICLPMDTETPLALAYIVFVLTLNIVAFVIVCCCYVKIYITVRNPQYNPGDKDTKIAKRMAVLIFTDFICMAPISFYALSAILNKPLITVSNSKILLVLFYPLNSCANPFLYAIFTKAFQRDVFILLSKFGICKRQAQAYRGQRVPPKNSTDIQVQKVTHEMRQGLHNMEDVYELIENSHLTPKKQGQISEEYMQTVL
UniProt P37231: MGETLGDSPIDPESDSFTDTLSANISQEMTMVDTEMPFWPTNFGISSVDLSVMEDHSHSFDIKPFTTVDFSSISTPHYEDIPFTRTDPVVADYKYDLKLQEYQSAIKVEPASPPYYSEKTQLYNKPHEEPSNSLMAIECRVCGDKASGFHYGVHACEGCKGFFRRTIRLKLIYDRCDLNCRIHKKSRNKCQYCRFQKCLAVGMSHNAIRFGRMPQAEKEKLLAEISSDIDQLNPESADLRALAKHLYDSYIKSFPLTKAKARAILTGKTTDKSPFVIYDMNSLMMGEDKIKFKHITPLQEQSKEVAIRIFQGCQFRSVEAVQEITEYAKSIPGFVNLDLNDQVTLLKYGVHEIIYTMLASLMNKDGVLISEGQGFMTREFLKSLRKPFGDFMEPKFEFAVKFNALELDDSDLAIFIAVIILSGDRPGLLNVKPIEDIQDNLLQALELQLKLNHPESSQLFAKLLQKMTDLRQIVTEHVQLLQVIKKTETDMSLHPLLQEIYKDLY
UniProt Q92731, whole entry, looked up: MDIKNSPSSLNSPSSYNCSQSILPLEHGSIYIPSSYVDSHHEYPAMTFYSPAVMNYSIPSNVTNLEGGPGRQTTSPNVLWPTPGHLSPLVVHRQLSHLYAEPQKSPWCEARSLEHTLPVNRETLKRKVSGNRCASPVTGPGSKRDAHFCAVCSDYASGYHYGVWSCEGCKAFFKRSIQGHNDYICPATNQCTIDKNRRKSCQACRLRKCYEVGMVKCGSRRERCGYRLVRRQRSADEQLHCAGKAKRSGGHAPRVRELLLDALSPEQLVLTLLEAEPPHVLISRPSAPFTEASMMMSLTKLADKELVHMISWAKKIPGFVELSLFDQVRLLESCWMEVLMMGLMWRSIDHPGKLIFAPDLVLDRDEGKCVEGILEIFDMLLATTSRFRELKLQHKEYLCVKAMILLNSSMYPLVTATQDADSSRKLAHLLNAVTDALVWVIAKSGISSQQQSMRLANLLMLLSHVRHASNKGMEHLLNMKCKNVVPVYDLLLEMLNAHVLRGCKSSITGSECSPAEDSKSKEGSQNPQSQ
UniProt P06401: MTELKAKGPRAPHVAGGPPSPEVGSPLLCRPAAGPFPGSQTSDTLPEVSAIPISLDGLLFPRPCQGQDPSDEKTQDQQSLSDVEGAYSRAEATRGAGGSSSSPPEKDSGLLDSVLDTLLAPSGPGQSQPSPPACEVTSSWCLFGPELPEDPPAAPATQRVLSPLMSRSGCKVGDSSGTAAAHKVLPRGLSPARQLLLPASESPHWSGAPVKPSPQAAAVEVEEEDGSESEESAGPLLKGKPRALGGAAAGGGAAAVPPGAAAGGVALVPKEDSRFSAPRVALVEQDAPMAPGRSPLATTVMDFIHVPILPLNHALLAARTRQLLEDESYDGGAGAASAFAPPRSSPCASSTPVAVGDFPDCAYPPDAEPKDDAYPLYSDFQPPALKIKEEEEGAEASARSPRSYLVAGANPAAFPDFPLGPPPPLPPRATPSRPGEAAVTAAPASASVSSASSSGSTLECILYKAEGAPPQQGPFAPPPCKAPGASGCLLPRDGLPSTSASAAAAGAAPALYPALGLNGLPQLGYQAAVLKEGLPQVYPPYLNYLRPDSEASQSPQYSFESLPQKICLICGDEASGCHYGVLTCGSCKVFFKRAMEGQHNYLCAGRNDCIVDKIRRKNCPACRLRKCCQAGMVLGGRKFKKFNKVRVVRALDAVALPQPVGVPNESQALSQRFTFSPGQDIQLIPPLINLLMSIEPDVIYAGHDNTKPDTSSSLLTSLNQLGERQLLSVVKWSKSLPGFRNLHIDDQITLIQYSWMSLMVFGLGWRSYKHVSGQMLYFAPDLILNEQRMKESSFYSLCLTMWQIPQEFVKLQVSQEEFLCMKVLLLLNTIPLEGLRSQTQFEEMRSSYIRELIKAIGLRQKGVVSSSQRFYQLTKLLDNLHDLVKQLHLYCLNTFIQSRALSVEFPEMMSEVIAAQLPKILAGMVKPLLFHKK
UniProt P33261, whole entry, looked up: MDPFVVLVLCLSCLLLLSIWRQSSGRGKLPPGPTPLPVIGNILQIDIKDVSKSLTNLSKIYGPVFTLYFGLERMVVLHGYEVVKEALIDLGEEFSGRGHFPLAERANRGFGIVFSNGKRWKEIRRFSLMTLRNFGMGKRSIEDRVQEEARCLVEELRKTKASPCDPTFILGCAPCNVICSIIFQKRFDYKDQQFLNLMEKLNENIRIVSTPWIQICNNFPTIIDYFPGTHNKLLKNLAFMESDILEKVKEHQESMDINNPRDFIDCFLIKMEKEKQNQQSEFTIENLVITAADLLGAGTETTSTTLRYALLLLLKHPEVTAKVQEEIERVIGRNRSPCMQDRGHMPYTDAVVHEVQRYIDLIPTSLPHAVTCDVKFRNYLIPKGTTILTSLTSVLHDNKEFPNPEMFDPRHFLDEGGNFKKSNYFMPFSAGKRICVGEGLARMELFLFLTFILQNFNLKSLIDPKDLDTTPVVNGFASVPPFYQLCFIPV
UniProt P11712, whole entry, looked up: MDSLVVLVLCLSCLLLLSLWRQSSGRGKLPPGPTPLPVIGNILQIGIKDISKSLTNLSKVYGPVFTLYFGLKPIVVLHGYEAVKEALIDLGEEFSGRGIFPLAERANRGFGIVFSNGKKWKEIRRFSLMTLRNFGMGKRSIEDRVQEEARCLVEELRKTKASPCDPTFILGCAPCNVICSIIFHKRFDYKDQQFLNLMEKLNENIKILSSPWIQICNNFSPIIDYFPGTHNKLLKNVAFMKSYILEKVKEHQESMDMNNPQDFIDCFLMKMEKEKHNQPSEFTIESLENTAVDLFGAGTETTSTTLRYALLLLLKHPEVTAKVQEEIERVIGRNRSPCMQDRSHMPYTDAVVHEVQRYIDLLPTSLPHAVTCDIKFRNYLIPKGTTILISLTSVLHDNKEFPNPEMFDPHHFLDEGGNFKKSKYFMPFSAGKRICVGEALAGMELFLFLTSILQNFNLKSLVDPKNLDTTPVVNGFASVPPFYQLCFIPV
UniProt P05177, whole entry, looked up: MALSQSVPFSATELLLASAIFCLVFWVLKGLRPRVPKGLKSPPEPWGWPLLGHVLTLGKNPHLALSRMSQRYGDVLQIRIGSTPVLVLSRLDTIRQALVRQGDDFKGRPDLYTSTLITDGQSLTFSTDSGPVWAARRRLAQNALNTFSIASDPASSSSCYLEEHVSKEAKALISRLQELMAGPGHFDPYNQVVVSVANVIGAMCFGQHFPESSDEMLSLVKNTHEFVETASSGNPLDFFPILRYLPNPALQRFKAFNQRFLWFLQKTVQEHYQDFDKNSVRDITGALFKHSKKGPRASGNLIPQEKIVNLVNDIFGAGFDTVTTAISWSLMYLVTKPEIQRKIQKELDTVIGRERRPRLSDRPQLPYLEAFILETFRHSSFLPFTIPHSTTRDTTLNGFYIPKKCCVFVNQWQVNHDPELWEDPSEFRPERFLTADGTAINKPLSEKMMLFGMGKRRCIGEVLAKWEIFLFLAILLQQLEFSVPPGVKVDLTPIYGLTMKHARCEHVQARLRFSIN
UniProt P11473: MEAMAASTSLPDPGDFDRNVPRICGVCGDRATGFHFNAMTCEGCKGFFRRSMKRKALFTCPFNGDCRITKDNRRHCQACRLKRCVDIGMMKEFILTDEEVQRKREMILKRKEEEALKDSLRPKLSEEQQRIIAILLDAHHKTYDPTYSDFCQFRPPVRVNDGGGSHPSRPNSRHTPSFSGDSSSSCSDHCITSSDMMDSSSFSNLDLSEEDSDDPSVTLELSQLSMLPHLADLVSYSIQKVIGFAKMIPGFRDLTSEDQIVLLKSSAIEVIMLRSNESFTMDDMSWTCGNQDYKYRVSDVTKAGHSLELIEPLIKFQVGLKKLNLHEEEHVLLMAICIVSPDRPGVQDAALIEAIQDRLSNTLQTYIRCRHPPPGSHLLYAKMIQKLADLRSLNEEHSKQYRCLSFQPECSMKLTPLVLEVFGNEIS
UniProt P04150: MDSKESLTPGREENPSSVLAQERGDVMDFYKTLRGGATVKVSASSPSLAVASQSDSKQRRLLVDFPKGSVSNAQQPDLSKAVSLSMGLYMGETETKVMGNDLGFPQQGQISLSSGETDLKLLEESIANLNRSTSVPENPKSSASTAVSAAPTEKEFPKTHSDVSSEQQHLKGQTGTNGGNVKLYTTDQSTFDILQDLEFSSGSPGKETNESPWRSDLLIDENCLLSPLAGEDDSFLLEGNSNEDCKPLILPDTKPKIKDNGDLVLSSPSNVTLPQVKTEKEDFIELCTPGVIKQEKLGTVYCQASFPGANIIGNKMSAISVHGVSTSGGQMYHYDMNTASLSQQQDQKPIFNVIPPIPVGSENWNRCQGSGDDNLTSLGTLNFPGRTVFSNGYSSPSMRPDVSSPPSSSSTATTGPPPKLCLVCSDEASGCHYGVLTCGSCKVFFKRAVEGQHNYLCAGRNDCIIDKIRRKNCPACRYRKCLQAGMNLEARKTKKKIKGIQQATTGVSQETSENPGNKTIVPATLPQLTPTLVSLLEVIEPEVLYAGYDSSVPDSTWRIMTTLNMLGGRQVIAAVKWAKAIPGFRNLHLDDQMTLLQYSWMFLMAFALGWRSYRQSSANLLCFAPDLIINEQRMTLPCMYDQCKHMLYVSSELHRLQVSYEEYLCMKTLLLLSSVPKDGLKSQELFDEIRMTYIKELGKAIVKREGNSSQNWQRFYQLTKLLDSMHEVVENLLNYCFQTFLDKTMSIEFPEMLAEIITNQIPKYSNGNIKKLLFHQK

Tests used:
[1] = target: Retinoic acid receptor RXR-alpha (Homo sapiens) (UniProt P19793); experiment: qHTS assay to identify small molecule agonists of the RXR signaling pathway (AID 1159527); settings: HEK293T RXRa-UAS-bla, beta-lactamase ratio, 16 h; activation: at 76.8 µM (top of the series) unless noted; also: nearly all actives have a fitted effect of over 35% in size
Method in brief: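 Agonist mode; 9-cis retinoic acid positive control. HEK 293T UAS-bla reporter cells, 2% charcoal-stripped FBS, 16 hr compound exposure at 37 C/5% CO2. LiveBLAzer B/G FRET substrate 2 hr RT; ex 405, em 460/530 nm.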

[2] = qHTS assay for small molecule agonists of the p53 signaling pathway (AID 651631); settings: HCT-116 p53RE-bla reporter, beta-lactamase FRET ratio, 16 h; activation: at 73.3 µM (top of the series) unless noted; also: nearly all actives have a fitted effect of over 15% in size; also: potency is read from the fitted curve at half-maximal effect
Method in brief: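 p53RE-bla HCT-116 cells; compounds 16 h, 37 °C; LiveBLAzer B/G FRET substrate 2 h RT; fluorescence intensity read-out, qHTS format.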

[3] = qHTS assay for small molecule disruptors of the mitochondrial membrane potential (AID 720635; active = well fitted curve in the direction sought with a large enough effect in the repeat runs; inconclusive = weak or mixed curves; inactive = no such curve, though single readings can be large; an effect the other way counts as inactive or inconclusive; also: potency is read from the fitted curve at half-maximal effect); settings: HepG2 mitochondrial membrane potential, Mito-MPS dye ratio; ratio activity, negative = MMP loss: at 83.2 µM (top of the series) unless noted
Method in brief: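 HepG2 cells exposed to compound 1 hr at 37C, then Mito-MPS dye 30 min. Ratio read of aggregate (540/590 nm) versus monomer (490/535 nm) fluorescence.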

[4] = qHTS assay to identify small molecule antagonists of the thyroid receptor (TR) signaling pathway - cell viability counter screen (AID 743064; active = well fitted curve in the direction sought with a large enough effect in the repeat runs; inconclusive = weak or mixed curves; inactive = no such curve, though single readings can be large; an effect the other way counts as inactive or inconclusive; also: potency is read from the fitted curve at half-maximal effect; nearly all actives have a fitted effect of over 50% in size); settings: GH3.TRE-Luc viability, CellTiter-Fluor, 24 h; activity change, negative = cytotoxic: at 70.3 µM (top of the series) unless noted
Method in brief: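 GH3.TRE-Luc cells, 4 h pre-plating; cpd + T3 1 nM final; 37 °C 23.5 h; CellTiter-Fluor 30 min; fluorescence read.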

[5] = qHTS assay for small molecule agonists of the antioxidant response element (ARE) signaling pathway (AID 743202; active = well fitted activation curve with a large enough effect in the signal ratio in the repeat runs, not every such curve was filed as active; inconclusive = weak or mixed curves, or effect the other way; inactive = no such curve, though single readings can be large or run the other way; the % refers to the signal ratio; also: potency is read from the fitted curve at half-maximal effect); settings: HepG2 ARE-bla reporter, beta-lactamase FRET, 16 h; activation: at 73.3 µM (top of the series) unless noted
Method in brief: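 HepG2 ARE-bla reporter line, 2,000 cells/well; 5 h preincubation 37 C/5% CO2; compound (DMSO) 16 h 37 C; B/G FRET substrate 2 h RT; fluorescence intensity.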

[6] = qHTS assay to identify small molecule agonists of the farnesoid-X-receptor (FXR) signaling pathway - cell viability counter screen (AID 743218; active = well fitted curve in the direction sought with a large enough effect in the repeat runs; inconclusive = weak or mixed curves; inactive = no such curve, though single readings can be large; an effect the other way counts as inactive or inconclusive; also: nearly all actives have a fitted effect of over 45% in size; also: potency is read from the fitted curve at half-maximal effect); settings: FXR-bla HEK293T viability, CellTiter-Glo luminescence, 16 h; viability change, negative = cytotoxic: at 62.6 µM (top of the series) unless noted
Method in brief: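 Luminescence from CellTiter-Glo, read after 30 min at RT, reports viability of GeneBLAzer FXR-UAS-bla HEK 293T cells treated 16 h with compounds in the wells used for the beta-lactamase reporter.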

[7] = target: Thyrotropin receptor (Homo sapiens) (UniProt P16473); experiment: qHTS assay to identify small molecule agonists of the thyroid stimulating hormone receptor (TSHR) signaling pathway (AID 1224843); settings: TSHR-HEK293 cells, cAMP HTRF, agonist mode, 30 min; activation: at 92.4 µM (top of the series) unless noted; also: nearly all actives have a fitted effect of over 45% in size; also: potency is read from the fitted curve at half-maximal effect
Method in brief: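 HEK293/TSHR, 800 cells/well; cpd 30 min RT; add cAMP-d2 + anti-cAMP-cryptate, 1 h RT; fluorescence read on plate reader. 15-pt titration, n=3.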

[8] = qHTS assay for identifying genotoxic compounds that show differential cytotoxicity against isogenic chicken DT40 cell lines with known DNA damage response pathways - wild type cell line (AID 743012; active = well fitted curve in the direction sought with a large enough effect in the repeat runs; inconclusive = weak or mixed curves; inactive = no such curve, though single readings can be large; an effect the other way counts as inactive or inconclusive; also: nearly all actives have a fitted effect of over 60% in size; also: potency is read from the fitted curve at half-maximal effect); settings: DT40 wild type chicken cells viability, CellTiter-Glo, 40 h; activity change, negative = cytotoxicity: at 68.4 µM (top of the series) unless noted
Method in brief: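 CellTiter-Glo luminescence readout of viability in wild type DT40 cells after 40 h compound exposure at 37 C/5% CO2; 300 cells/well; reagent incubated 30 min at room temperature before reading.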

[9] = target: Peroxisome proliferator-activated receptor gamma (Homo sapiens) (UniProt P37231); experiment: qHTS assay to identify small molecule antagonists of the peroxisome proliferator-activated receptor gamma (PPARg) signaling pathway (AID 743191); settings: HEK293H PPARg-UAS-bla, beta-lactamase ratio, antagonist, 17 h; ratio activity, negative = inhibition: at 62.6 µM (top of the series) unless noted; also: nearly all actives have a fitted effect of over 30% in size
Method in brief: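 GeneBLAzer PPARg UAS-bla HEK293H cells, 5 h post-plating, exposed to compounds 17 h at 37C. LiveBLAzer B/G FRET substrate added for 1 h at room temperature; beta-lactamase reporter read by fluorescence intensity.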

[10] = target: Estrogen receptor beta (Homo sapiens) (UniProt Q92731); experiment: qHTS assay to identify small molecule antagonists of the estrogen receptor beta (ER-beta) signaling pathway (AID 1259378; active = well fitted inhibition curve with a large enough effect in the signal ratio in the repeat runs, not every such curve was filed as active; inconclusive = weak or mixed curves, or effect the other way; inactive = no such curve, though single readings can be large or run the other way; the % refers to the signal ratio); settings: ER-beta-UAS-bla HEK293T, beta-lactamase FRET ratio, 16 h; activity, negative = inhibition: at 92.4 µM (top of the series) unless noted
Method in brief: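 ER-beta-UAS-bla HEK293T cells in 2% charcoal-stripped FBS medium treated with compound plus 1nM final 17-beta-estradiol for 16 hr at 37C. Beta-lactamase reporter read by FRET substrate fluorescence after 2 hours at room temperature.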

[11] = target: Progesterone receptor (Homo sapiens) (UniProt P06401); experiment: qHTS assay to identify small molecule antagonists of the progesterone receptor (PR) signaling pathway (AID 1346795; active = well fitted inhibition curve with a large enough effect in the signal ratio in the repeat runs, not every such curve was filed as active; inconclusive = weak or mixed curves; the % refers to the signal ratio); settings: PR-UAS-bla HEK293T, beta-lactamase FRET ratio, 16 h; activity change, negative = inhibition: at 92.4 µM (top of the series) unless noted
Method in brief: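 Beta-lactamase reporter, HEK293T PR-UAS-bla line; 2% charcoal-stripped FBS; 6 hr pre-incubation, 37C/5% CO2. Compound + R5020 1 nM final, 16 hr. LiveBLAzer B/G FRET substrate, 2 hr RT; fluorescence intensity read.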

[12] = qHTS assay to identify small molecule agonists of the progesterone receptor (PR) signaling pathway - cell viability counter screen (AID 1346799); also: nearly all actives have a fitted effect of over 45% in size; also: potency is read from the fitted curve at half-maximal effect
Method in brief: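 HEK293T PR-UAS-bla, 3,000 cells/well, 2% charcoal-stripped FBS; 6 h settle, compound 16 h at 37C/5% CO2; LiveBLAzer 2 h RT, then CellTiter-Glo 30 min RT, luminescence read.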

[13] = target: Cytochrome P450 2C19 (Homo sapiens) (UniProt P33261); experiment: Cytochrome P450 Family 2 Subfamily C Member 19 (CYP2C19) small molecule antagonists: luciferase reporter qHTS assay (AID 1671197; active = well fitted curve in the direction sought with a large enough effect in the repeat runs; inconclusive = weak or mixed curves; inactive = no such curve, though single readings can be large; an effect the other way counts as inactive or inconclusive; also: potency is read from the fitted curve at half-maximal effect; nearly all actives have a fitted effect of over 65% in size)
Method in brief: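 P450-Glo CYP2C19 system: enzyme-substrate mix with compound 10 min at room temperature, then NADPH regeneration solution, 1 h at 37C. Proluciferin-to-luciferin conversion detected by luminescence after 20 min with detection reagent; ketoconazole as positive control.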

[14] = target: Cytochrome P450 2C9 (Homo sapiens) (UniProt P11712); experiment: Cytochrome P450 Family 2 Subfamily C Member 9 (CYP2C9) small molecule antagonists: luciferase reporter qHTS assay (AID 1671198; active = well fitted curve in the direction sought with a large enough effect in the repeat runs; inconclusive = weak or mixed curves; inactive = no such curve, though single readings can be large; an effect the other way counts as inactive or inconclusive; also: nearly all actives have a fitted effect of over 50% in size)
Method in brief: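 P450-Glo proluciferin substrate with CYP2C9 enzyme; 10 min RT preincubation, then NADPH regeneration 1 h at 37C; luciferin detection reagent 20 min RT, luminescence in relative luminescence units.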

[15] = qHTS assay for identifying genotoxic compounds that show differential cytotoxicity against isogenic chicken DT40 cell lines with known DNA damage response pathways - Rev3 mutant cell line (AID 743014; active = well fitted curve in the direction sought with a large enough effect in the repeat runs; inconclusive = weak or mixed curves; inactive = no such curve, though single readings can be large; an effect the other way counts as inactive or inconclusive; also: potency is read from the fitted curve at half-maximal effect; nearly all actives have a fitted effect of over 55% in size); settings: chicken DT40 Rev3-/- viability, CellTiter-Glo, 40 h; activity, negative = cytotoxicity: at 68.4 µM (top of the series) unless noted
[16] = target: Cytochrome P450 1A2 (Homo sapiens) (UniProt P05177); experiment: Cytochrome P450 Family 1 Subfamily A Member 2 (CYP1A2) small molecule antagonists: luciferase reporter qHTS assay (AID 1671199; active = well fitted curve in the direction sought with a large enough effect in the repeat runs; inconclusive = weak or mixed curves; inactive = no such curve, though single readings can be large; an effect the other way counts as inactive or inconclusive; also: nearly all actives have a fitted effect of over 50% in size; also: potency is read from the fitted curve at half-maximal effect)
Method in brief: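 Luminescence readout (relative luminescence units) after luciferin detection reagent, 20 min RT. Preceded by 1 h room-temperature CYP1A2 reaction with NADPH regeneration solution following 10 min compound preincubation with enzyme and proluciferin substrate. Furafylline positive control.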

[17] = target: Vitamin D3 receptor (Homo sapiens) (UniProt P11473); experiment: qHTS assay to identify small molecule antagonists of the vitamin D receptor (VDR) signaling pathway (AID 743223; active = well fitted inhibition curve with a large enough effect in the signal ratio in the repeat runs, not every such curve was filed as active; inconclusive = weak or mixed curves, or effect the other way; inactive = no such curve, though single readings can be large or run the other way; the % refers to the signal ratio); settings: VDR-UAS-bla HEK293T, beta-lactamase FRET ratio, 16 h; activity change, negative = inhibition: at 61 µM (top of the series) unless noted
Method in brief: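 Beta-lactamase reporter read-out: FRET substrate fluorescence after 2 h at room temperature, following 16 h exposure of VDR-bla cells to test compound plus 3 nM (final) 1alpha,25-dihydroxyvitamin D3 agonist at 37C.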

[18] = target: Glucocorticoid receptor (Homo sapiens) (UniProt P04150); experiment: qHTS assay to identify small molecule antagonists of the glucocorticoid receptor (GR) signaling pathway (AID 720692; active = well fitted inhibition curve with a large enough effect in the signal ratio in the repeat runs, not every such curve was filed as active; inconclusive = weak or mixed curves, or effect the other way; inactive = no such curve, though single readings can be large or run the other way; the % refers to the signal ratio; also: potency is read from the fitted curve at half-maximal effect); settings: GR-bla HeLa, beta-lactamase FRET ratio, dexamethasone-stimulated, 18 h; activity change, negative = inhibition: at 58.5 µM (top of the series) unless noted
Method in brief: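 Read-out: beta-lactamase FRET substrate fluorescence, 2 h at room temperature, in HeLa cells stably carrying a GRE-driven bla reporter. Compounds were co-incubated with 5 nM dexamethasone agonist (final) for 18 h at 37 C.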

## CCC1CCCCC1
[1]
  Potency: inactive

## CC[N+](CC)(CC)Cc1ccccc1
[1]
  Potency: inactive

## C1CCC2=NCCCN2CC1
[2]
  Potency: inconclusive: 0.243 µM [falling, single point]
[3]
  Potency: inactive
[4]
  Potency: inconclusive: 0.0031 µM [rising, full curve, poor fit]
[5]
  activation: inconclusive: 17%
[6]
  Potency: inactive
[1]
  Potency: inactive
[7]
  Potency: inactive

## CCCCCC1CCCC(=O)O1 (centres undefined)
[2]
  Potency: inactive
[3]
  Potency: inactive
[8]
  activity change, negative = cytotoxicity: inconclusive: 34.4%
[4]
  Potency: inconclusive: 68.6 µM [rising, single point]
[9]
  ratio activity, negative = inhibition: inconclusive: 27.6%
[5]
  Potency: inactive
[1]
  Potency: inactive
[7]
  Potency: inactive
[10]
  Potency: inactive
[11]
  activity change, negative = inhibition: inconclusive: 11.4%
[12]
  Potency: inconclusive: 7.7 µM [rising, partial curve, poor fit]

## CCC(CC)CO
[5]
  Potency: inactive
[6]
  Potency: inconclusive: 0.245 µM [rising, full curve, poor fit]
[1]
  Potency: inactive
[7]
  Potency: inactive
[12]
  Potency: inactive
[13]
  Potency: inconclusive: 0.502 µM [inhibitor, full curve, poor fit]
[14]
  Potency: inactive

## CCCCCCOC(=O)CCCCC(=O)OCCCCCC
[15]
  Potency: inconclusive: 43.3 µM [cytotoxic, partial curve]
[4]
  Potency: inconclusive: 54.5 µM [rising, partial curve]
[5]
  Potency: inconclusive: 24.3 µM [rising, full curve]
[6]
  viability change, negative = cytotoxic: inconclusive: 17.3%
[1]
  Potency: inactive
[7]
  Potency: inconclusive: 61.1 µM [inhibitor, single point]
[16]
  Potency: inactive

## COc1cc(Cl)c(OC)cc1N
[3]
  Potency: inconclusive: 30.6 µM
[8]
  Potency: inconclusive: 77 µM [cytotoxic, single point]
[15]
  Potency: inconclusive: 68.6 µM [cytotoxic, single point]
[5]
  Potency: inconclusive: 34.4 µM [rising, partial curve, poor fit]
[17]
  Potency: inactive
[1]
  Potency: inactive
[7]
  activation: inconclusive: 7.67%
[11]
  activity change, negative = inhibition: inconclusive: -43.1%

## O=C(Cl)c1ccccc1[N+](=O)[O-]
[2]
  Potency: inactive
[18]
  Potency: inconclusive: 56.2 µM [activator, single point]
[4]
  Potency: inconclusive: 1.4 µM [rising, single point]
[9]
  Potency: inactive
[1]
  Potency: inactive
[7]
  Potency: inactive
[16]
  Potency: inconclusive: 40.9 µM [inhibitor, partial curve]
